# Laboratory results reported in PubChem BioAssay AID2685 (National Center for Advancing Translational Sciences (NCATS), 2010).
# The other results are listed elsewhere or left out. Further columns of the screen follow, without active or inactive calls. The list favours compounds with an active or inconclusive main result. The note in brackets gives the kind of curve behind each potency; many fits are weak.
# Assay: qHTS Assay for Lipid Storage Modulators in Drosophila S3 Cells;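 as to cell number change: cells counted by Cell Tracker Red CMTPX staining in the red channel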
# Details: BODIPY lipid droplet fluorescence, 18-24 h; for cell number change: measured here: cell count max response, cells fed with added oleic acid
# How it was run: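 Drosophila S3 cells got compounds at several concentrations plus oleic acid (400 uM solution). Laser-scanning cytometry with 488 nm excitation read lipid droplets at 500-530 nm and cells at 575-640 nm. Percent activity was relative to 20 uM Triacsin C.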
# [1] = measured here: lipid fluorescence (Fed channel) AC50, cells fed with added oleic acid
# [2] = measured here: cell number channel AC50, cells fed with added oleic acid
SMILES,cell number change,AC50 [1],AC50 [2]
C/C(=N/NC(=O)CN1CCN(Cc2ccccc2Cl)CC1)c1cccs1,14.4%,"5.17 µM [rising, single point]",
COc1cc(C(=O)Nc2ccc3oc(-c4cccnc4)nc3c2)cc(OC)c1OC,48.6%,,"0.461 µM [rising, full curve, poor fit]"
COc1cc2c(cc1NC(=O)COCC(=O)O)oc1ccccc12,59.2%,"29.1 µM [rising, single point]","9.2 µM [rising, partial curve, poor fit]"
Cc1ccc(NC(=O)c2ccc(S(=O)(=O)N3CCOCC3)cc2)c(C)c1,-22.4%,,
CCNS(=O)(=O)c1ccc(NC(=O)Nc2ccc3c(c2)OCO3)cc1,-3.47%,,
S=C(NC1CCCC1)N1CCN(C/C=C/c2ccccc2)CC1,-42.7%,,"1.16 µM [falling, full curve, poor fit]"
O=C(CN1CCCC1)Nc1cccc(Cl)c1Cl,20.4%,"29.1 µM [rising, single point]","0.00461 µM [rising, full curve, poor fit]"
CC(C)(C)NC(=O)C(=O)NN=C1CCCCCC1,22.4%,"0.651 µM [rising, full curve, poor fit]",
O=C(Nc1nccs1)c1cc2c(s1)-c1ccccc1OC2,-31.2%,"2.06 µM [rising, partial curve]","2.06 µM [falling, full curve]"
Cc1c(C(=O)Nc2nccs2)oc2ccc(F)cc12,2.86%,"1.16 µM [falling, single point]",
Cc1ccc(Nc2nc(NCCCN3CCOCC3)nc(N)c2[N+](=O)[O-])cc1,-8.19%,"16.4 µM [rising, partial curve, poor fit]",
O=C(CN(Cc1ccccc1)C(=O)CCC(=O)Nc1nccs1)NCC1CCCO1 (centres undefined),-1.28%,"5.17 µM [rising, single point]",
CC(=O)N1CCN(C(=O)c2cccc(S(=O)(=O)N3CCN(c4ccc(F)cc4)CC3)c2)CC1,36%,,"14.6 µM [rising, single point]"
O=C(Nc1cccc(CCc2ccccn2)c1)c1cc(F)c(F)cc1Cl,13.7%,"0.103 µM [rising, full curve, poor fit]",
CCOc1ccc(NC(=S)NC(=O)c2cnn(CC)c2)c([N+](=O)[O-])c1,-26.2%,"16.4 µM [falling, single point]",
O=C(c1ccc2snnc2c1)N1CCSCC1,5.39%,"0.00517 µM [falling, full curve, poor fit]",
CC(NC(=O)COC(=O)CC(c1ccccc1)c1ccccc1)c1ccccc1 (centres undefined),8.99%,,"0.82 µM [falling, single point]"
O=C(CCSc1ccccc1)NC1CCCCCC1,-6.37%,,
CCn1c(CNC(=O)c2ccccc2Br)nnc1SCC(=O)NC1=NCCS1,17.9%,,
CC(O)(C#CCN1CCCCCC1)c1ccccc1 (centres undefined),-5.79%,,

SMILES,cell number change,AC50 [1],AC50 [2]
O=C(COc1cccc(F)c1)NNC(=O)c1cccc(-n2cccc2)c1,,,"0.0731 µM [falling, full curve, poor fit]"
CCOc1ccc(S(=O)(=O)Nc2ccccc2C(=O)Nc2ccccc2N2CCOCC2)cc1,,,"3.26 µM [rising, partial curve]"
C=CCNc1nnc(Cc2ccc(F)cc2)c(=O)[nH]1,16.5%,,"0.00651 µM [rising, full curve, poor fit]"
COc1ccc(NC(=O)c2cc(-c3ccc4c(c3)OCO4)on2)cc1OC,0.42%,,
CN(C)c1ccc(/C=C/C(=O)c2ccccc2)cc1[N+](=O)[O-],-12.2%,"4.61 µM [falling, partial curve]",
CC[N+](CC)(CC)CC(=O)Nc1ccc(SC(F)F)cc1,-22.5%,,
CCOc1ccc(CCNC(=O)COC(=O)COc2ccc(C#N)cc2)cc1OCC,15.1%,"0.517 µM [falling, single point]",
CCC(=O)Nc1nc2ccccc2n1CCN1CCOCC1,0.471%,,
O=C(CSCc1nc2scc(-c3cccs3)c2c(=O)[nH]1)Nc1ccccn1,-7.09%,,
O=[N+]([O-])c1ccccc1N/N=C1\CC2CC=CC12 (centres undefined),-44.2%,"0.0164 µM [falling, full curve, poor fit]",
CCN(c1ccc(OC)cc1)S(=O)(=O)c1ccc2c(c1)CC(C)N2C(=O)C1CC1 (centres undefined),-22.4%,"29.1 µM [falling, single point]",
Cc1ccc(S(=O)(=O)N2CCOCC2)cc1NC(=O)CN1C(=O)CN(C)C1=O,4.87%,,"2.91 µM [falling, single point]"
CCOc1ccccc1NC(=O)c1cc(-c2cc(OC)c(OC)c(OC)c2)nc2ccccc12,-5.56%,"6.51 µM [falling, single point]",
COc1ccc2c(=O)c3c(=O)n(-c4ccccc4)c(-c4ccco4)nc3oc2c1,25.4%,"20.6 µM [rising, single point]","4.61 µM [rising, full curve, poor fit]"
O=C(CSc1ccc(Cl)cc1)NN=C1CCCCCC1,-21.2%,"0.092 µM [falling, full curve, poor fit]","0.731 µM [falling, full curve, poor fit]"
O=C(Oc1ccccc1)c1c(Cl)cccc1P(=O)(O)O,,"4.11 µM [falling, full curve, poor fit]",
O=C1CSC(=S)N1/N=C/c1cccnc1,6.4%,"6.51 µM [rising, single point]","2.59 µM [rising, single point]"
CCCCn1c(N)c(N(CCOC)C(=O)c2ccc(Cl)c(S(=O)(=O)N3CCCCC3)c2)c(=O)[nH]c1=O,-98.2%,,"29.1 µM [falling, single point]"
Cc1ccccc1OCC(=O)NCC(C)(C)N1CCOCC1,16.5%,,
CN(C)S(=O)(=O)Oc1ccccc1C(=O)Nc1ccc(F)cc1F,140%,"29.1 µM [rising, single point]","29.1 µM [rising, single point]"

# Reprinted from above, two compounds:
SMILES,cell number change,AC50 [1],AC50 [2]
O=C(CSCc1nc2scc(-c3cccs3)c2c(=O)[nH]1)Nc1ccccn1,-7.09%,,
O=[N+]([O-])c1ccccc1N/N=C1\CC2CC=CC12 (centres undefined),-44.2%,"0.0164 µM [falling, full curve, poor fit]",
